Values from PubChem BioAssay AID1259331 (Drosophila RNAi Screening Center, 2017).

- Purpose: 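Genes whose knock-down changes cell survival under toxic zinc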 (primary screen)
- System: Drosophila S2R+ cells
- Reagents: long dsRNA against Drosophila genes
- Timing: 5 days (4 days knock-down, then 1 day zinc)
- Challenge: zinc chloride at 15 mM final level for 1 day
- Measurement: 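Total cellular ATP measured by luciferase luminescence as a viability proxy, turned into Z scores from three plate copies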
- Reading the numbers: mean Z score: higher = more ATP than other wells, better survival under zinc; ATP luminescence: higher = more ATP, more viable cells
- Call rule: 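Hit when the absolute Z score is greater than 1.5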
- Meaning of the calls: active = hit, ATP up or down; inactive = not a hit
Here is a random part of about 3,100 reagents. 126 of them (4.1%) count as active. 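Calls are per reagent; zinc was so toxic that few knock-downs lowered ATP further, so most hits raise ATP.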 Raw values are not corrected between plates. Unmarked entries are inactive. Names joined by + are all predicted targets of the reagent. The record does not give: the amount of reagent.

| Target gene | dsRNA | mean Z score | ATP luminescence, replicate 1 | ATP luminescence, replicate 2 |
| --- | --- | --- | --- | --- |
| Esp | DRSC16664 | -0.0428 | 37465 | 58525 |
| CG17751 | DRSC22837 | -0.73 | 37382 | 38019 |
| CG17751 | DRSC24497 | -0.729 | 50429 | 49880 |
| wwk | DRSC01941 | 0.0403 | 53876 | 40536 |
| Pkd2 | DRSC02962 | -0.13 | 52744 | 35685 |
| Pkd2 | DRSC27522 | -0.168 | 57780 | 57785 |
| EloA | DRSC16109 | 0.813 | 57305 | 53464 |
| EloA | DRSC23920 | 2.15 (active) | 82499 | 88982 |
| nAChRalpha4 | DRSC11925 | -0.748 | 52795 | 54510 |
| nAChRalpha4 | DRSC26817 | 0.0726 | 64130 | 58643 |
| CG4462 | DRSC15583 | -0.276 | 40793 | 45988 |
| CG4462 | DRSC25650 | -1 | 44635 | 47274 |
| PK2-R1 | DRSC16447 | -0.529 | 33644 | 53241 |
| PK2-R1 | DRSC24363 | -0.0634 | 51098 | 59174 |
| MFS18 | DRSC00452 | -0.00353 | 51527 | 61106 |
| MFS18 | DRSC39625 | 0.529 | 66874 | 65489 |
| CG32305 | DRSC08614 | -0.285 | 71171 | 67475 |
| CG32305 | DRSC29854 | -0.0225 | 48337 | 41668 |
| Cftr | DRSC15872 | -1.04 | 32239 | 33638 |
| Cftr | DRSC24655 | -0.122 | 56448 | 52658 |
| Tsp42Eh | DRSC06190 | 0.231 | 43665 | 46537 |
| Tsp42Eh | DRSC39852 | -0.183 | 53687 | 53584 |
| CG1801 | DRSC20556 | 0.118 | 41874 | 44325 |
| Npc1b | DRSC20488 | -0.169 | 42071 | 38539 |
| Npc1b | DRSC39575 | -0.477 | 45760 | 55632 |
| CG11069 | DRSC14289 | -0.25 | 41702 | 45834 |
| Nmdar1 | DRSC12071 | 0.48 | 74626 | 73392 |
| Nmdar1 | DRSC12356 | 0.16 | 76187 | 65074 |
| Nmdar1 | DRSC24657 | -0.568 | 51372 | 46537 |
| Gr57a | DRSC06401 | 0.132 | 64422 | 72791 |
| Amt | DRSC16055 | 0.222 | 37742 | 61141 |
| Amt | DRSC27970 | 0.145 | 62913 | 57888 |
| asRNA:CR30267 + CG42260 | DRSC29385 | 0.26 | 63444 | 67406 |
| CG45049 | DRSC16163 | 0.0439 | 35578 | 58471 |
| CG45049 | DRSC23175 | -0.176 | 44480 | 48543 |
| CG6125 | DRSC15970 | 0.389 | 38410 | 66753 |
| CG13796 | DRSC24686 | -0.296 | 58094 | 51164 |
| CG10481 | DRSC02063 | 0.57 | 60067 | 44960 |
| CG10481 | DRSC39539 | 0.062 | 50841 | 48843 |
| CG43155 | DRSC19777 | 0.269 | 70616 | 70408 |
| Orct | DRSC16777 | -0.339 | 40536 | 43674 |
| Orct | DRSC25574 | -0.595 | 38856 | 49006 |
| CG5715 | DRSC15860 | 0.877 | 44236 | 69979 |
| CG5715 | DRSC26011 | -0.389 | 43314 | 46794 |
| rumpel | DRSC18436 | -0.326 | 58523 | 62810 |
| rumpel | DRSC39504 | -0.15 | 42988 | 48766 |
| CG3164 | DRSC00572 | -0.278 | 41702 | 43759 |
| Gr64a | DRSC21713 | -0.539 | 38445 | 44737 |
| Gr64a | DRSC39738 | -0.112 | 57991 | 57785 |
| Recs1 | DRSC16545 | -0.104 | 36062 | 55076 |
| Recs1 | DRSC39698 | 0.455 | 68041 | 60238 |
| Lcch3 + Ranbp16 | DRSC39860 | -0.484 | 52675 | 48149 |
| Fs(2)Ket | DRSC03328 | -0.179 | 51545 | 55985 |
| Fs(2)Ket | DRSC23439 | -1.22 | 39525 | 38445 |
| ste24c + CG30461 | DRSC05639 | -0.284 | 37690 | 40149 |
| ste24c + CG30461 | DRSC07316 | -0.147 | 55625 | 70081 |
| CG6230 | DRSC01989 | -0.492 | 49486 | 49057 |
| CG9459 | DRSC16496 | -0.712 | 38582 | 51269 |
| CG9459 | DRSC39459 | -0.0139 | 56053 | 47309 |
| NaPi-III | DRSC10893 | -0.448 | 29933 | 27285 |
| NaPi-III | DRSC28299 | 0.223 | 65228 | 64439 |
| Pen | DRSC03396 | 0.278 | 52675 | 68075 |
| Pen | DRSC39160 | -0.00188 | 47480 | 47223 |
| ppk7 | DRSC03236 | -0.717 | 40639 | 42349 |
| N | DRSC18685 | -0.674 | 50748 | 59089 |
| N | DRSC37611 | 0.76 | 58386 | 55996 |
| CG30160 + Tsp42Eb | DRSC04961 | 0.184 | 42262 | 48132 |
| CG30160 + Tsp42Eb | DRSC06791 | -0.179 | 36842 | 42643 |
| alpha-Catr | DRSC28046 | -0.238 | 61935 | 42508 |
| fng | DRSC11887 | 0.0112 | 30165 | 33284 |
| fng | DRSC21935 | 0.0885 | 49040 | 49259 |
| Dh44-R1 | DRSC07172 | -0.58 | 25761 | 29410 |
| Dh44-R1 | DRSC28984 | 2.29 (active) | 98042 | 95238 |
| CG2121 | DRSC06819 | -0.231 | 27024 | 31827 |
| CG2121 | DRSC06820 | -0.406 | 71436 | 64799 |
| CG11655 | DRSC19413 | 0.798 | 78554 | 80012 |
| Dop1R2 | DRSC13958 | 0.259 | 79995 | 65263 |
| Dop1R2 | DRSC28272 | -0.149 | 57631 | 60581 |
| TM4SF | DRSC04661 | -0.232 | 29650 | 28565 |
| TM4SF | DRSC39574 | -0.456 | 52915 | 53361 |
| CG3592 | DRSC18315 | -0.404 | 60255 | 58420 |
| CG3592 | DRSC39849 | 0.109 | 63067 | 52099 |
| CG6845 | DRSC08576 | -0.214 | 30521 | 32359 |
| CG6845 | DRSC26319 | 0.0949 | 53567 | 60015 |
| CG32246 | DRSC08115 | 0.268 | 43382 | 46074 |
| CG32246 | DRSC24361 | -0.39 | 52064 | 58763 |
| Or19a + Or19b | DRSC22604 | 0.0229 | 49760 | 48406 |
| Or19a + Or19b | DRSC39643 | 0.0305 | 67048 | 54990 |

Records listed so far whose gene name starts with M or m (2):
| Target gene | dsRNA | mean Z score | ATP luminescence, replicate 1 | ATP luminescence, replicate 2 |
| --- | --- | --- | --- | --- |
| MFS18 | DRSC00452 | -0.00353 | 51527 | 61106 |
| MFS18 | DRSC39625 | 0.529 | 66874 | 65489 |
